Results are given in words; binding and its absence hold for the method and conditions named. In cells and extracts the contact can be indirect. These calls come from enrichment with a bait or labelling near it, and not all partners need be listed.
Target: Fc-glucagon (human) (UniProt P01275)
Test: affinity purification with mass spectrometry; Fc-glucagon expressed in α-TC1-6 cells, captured on Protein A-Sepharose from non-ionic lysate of enriched secretory granules, overnight at 4°C; 7 M urea elution; LC-MS/MS; proteins found with Fc alone subtracted; cells in 25 or 5.5 mM glucose, with or without GABA (25 μM), insulin (100 pM) or both for 24 h

Protein sequences, listed by entry. Tags and fused reporters are not part of them. Residues count along the entry.
UniProt P01275, residues 53-81: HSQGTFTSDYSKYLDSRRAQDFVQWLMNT

B1: Aconitate hydratase, mitochondrial (protein, UniProt Q99KI0 28-780)
chain: QRAKVAMSHFEPSEYIRYDLLEKNINIVRKRLNRPLTLSEKIVYGHLDDPANQEIERGKTYLRLRPDRVAMQDATAQMAMLQFISSGLPKVAVPSTIHCDHLIEAQVGGEKDLRRAKDINQEVYNFLATAGAKYGVGFWRPGSGIIHQIILENYAYPGVLLIGTDSHTPNGGGLGGICIGVGGADAVDVMAGIPWELKCPKVIGVKLTGSLSGWTSPKDVILKVAGILTVKGGTGAIVEYHGPGVDSISCTGMATICNMGAEIGATTSVFPYNHRMKKYLSKTGRTDIANLAEEFKDHLVPDPGCQYDQVIEINLNELKPHINGPFTPDLAHPVADVGTVAEKEGWPLDIRVGLIGSCTNSSYEDMGRSAAVAKQALAHGLKCKSQFTITPGSEQIRATIERDGYAQILRDVGGIVLANACGPCIGQWDRKDIKKGEKNTIVTSYNRNFTGRNDANPETHAFVTSPEIVTALAIAGTLKFNPETDFLTGKDGKKFKLEAPDADELPRSDFDPGQDTYQHPPKDSSGQRVDVSPTSQRLQLLEPFDKWDGKDLEDLQILIKVKGKCTTDHISAAGPWLKFRGHLDNISNNLLIGAINIENGKANSVRNAVTQEFGPVPDTARYYKKHGIRWVVIGDENYGEGSSREHAALEPRHLGGRAIITKSFARIHETNLKKQGLLPLTFADPSDYNKIHPVDKLTIQGLKDFAPGKPLKCVIKHPNGTQETILLNHTFNETQIEWFRAGSALNRMKELQQ
In the case of B1, the binding is reported as “binds”.

B2: ELKS/Rab6-interacting/CAST family member 1 (protein, UniProt Q99MI1 1-1120)
chain: MYGSARSVGKVEPSSQSPGRSPRLPRSPRLGHRRTNSTGGSSGNSVGGGSGKTLSMENIQSLNAAYATSGPMYLSDHENVGAETPKSTMTLGRSGGRLPYGVRMTAMGSSPNIASSGVASDTIAFGEHHLPPVSMASTVPHSLRQARDNTIMDLQTQLKEVLRENDLLRKDVEVKESKLSSSMNSIKTFWSPELKKERALRKDEASKITIWKEQYRVVQEENQHMQMTIQALQDELRIQRDLNQLFQQDSSSRTGEPCVAELTEENFQRLHAEHERQAKELFLLRKTLEEMELRIETQKQTLNARDESIKKLLEMLQSKGLSAKATEEDHERTRRLAEAEMHVHHLESLLEQKEKENNMLREEMHRRFENAPDSAKTKALQTVIEMKDSKISSMERGLRDLEEEIQMLKSNGALSSEEREEEMKQMEVYRSHSKFMKNKVEQLKEELSSKDAQGEELKKRAAGLQSEIGQVKQELSRKDTELLALQTKLETLTNQFSDSKQHIEVLKESLTAKEQRAAILQTEVDALRLRLEEKETMLNKKTKQIQDMAEEKGTQAGEIHDLKDMLDVKERKVNVLQKKIENLQEQLRDKEKQMSSLKERVKSLQADTTNTDTALTTLEEALADKERTIERLKEQRDRDEREKQEEIDTYKKDLKDLREKVSLLQGDLSEKEASLLDIKEHASSLASSGLKKDSRLKTLEIALEQKKEECLKMESQLKKAHEATLEARASPEMSDRIQQLEREISRYKDESSKAQTEVDRLLEILKEVENEKNDKDKKIAELESLTSRQVKDQNKKVANLKHKEQVEKKKSAQMLEEARRREDSLSDSSQQLQDSLRKKDDRIEELEEALRESVQITAEREMVLAQEESARTNAEKQVEELLMAMEKVKQELESMKAKLSSTQQSLAEKETHLTNLRAERRKHLEEVLEMKQEALLAAISEKDANIALLELSSSKKKTQEEVAALKREKDRLVQQLKQQTQNRMKLMADNYEDDHFRSSRSNQTNHKPSPDQIIQPLLELDQNRSKLKLYIGHLTALCHDRDPLILRGLTPPASYNADGEQAAWENELQQMTQEQLQNELEKVEGDNAELQEFANTILQQIADHCPDILEQVVNALEESS
With B2 the binding was “binds”.

B3: Peroxiredoxin-2 (protein, UniProt Q61171 1-198)
chain: MASGNAQIGKSAPDFTATAVVDGAFKEIKLSDYRGKYVVLFFYPLDFTFVCPTEIIAFSDHAEDFRKLGCEVLGVSVDSQFTHLAWINTPRKEGGLGPLNIPLLADVTKSLSQNYGVLKNDEGIAYRGLFIIDAKGVLRQITVNDLPVGRSVDEALRLVQAFQYTDEHGEVCPAGWKPGSDTIKPNVDDSKEYFSKHN
With B3 the binding was “binds”.

B4: Chromogranin A (protein, UniProt P26339 19-463)
chain: LPVNSPMTKGDTKVMKCVLEVISDSLSKPSPMPVSPECLETLQGDERILSILRHQNLLKELQDLALQGAKERAQQPLKQQQPPKQQQQQQQQQQQEQQHSSFEDELSEVFENQSPDAKHRDAAAEVPSRDTMEKRKDSDKGQQDGFEATTEGPRPQAFPEPNQESPMMGDSESPGEDTATNTQSPTSLPSQEHVDPQATGDSERGLSAQQQARKAKQEEKEEEEEEEAVAREKAGPEEVPTAASSSHFHAGYKAIQKDDGQSDSQAVDGDGKTEASEALPSEGKGELEHSQQEEDGEEAMVGTPQGLFPQGGKGRELEHKQEEEEEEEERLSREWEDKRWSRMDQLAKELTAEKRLEGEDDPDRSMKLSFRTRAYGFRDPGPQLRRGWRPSSREDSVEARSDFEEKKEEEGSANRRAEDQELESLSAIEAELEKVAHQLQALRRG
For B4, the binding was “binds”.

B5: Stathmin1 (protein, UniProt P54227 1-149)
chain: MASSDIQVKELEKRASGQAFELILSPRSKESVPDFPLSPPKKKDLSLEEIQKKLEAAEERRKSHEAEVLKQLAEKREHEKEVLQKAIEENNNFSKMAEEKLTHKMEANKENREAQMAAKLERLREKDKHVEEVRKNKESKDPADETEAD
B5 was tested, and the binding was “binds”.

B6: secretogranin 2 (protein, UniProt Q03517 31-617)
chain: QRNQLLQKEPDLRLENVQKFPSPEMIRALEYIEKLRQQAHREESSPDYNPYQGVSVPLQLKENGEESHLAESSRDALSEDEWMRIILEALRQAENEPPSAPKENKPYALNLEKNFPVDTPDDYETQQWPERKLKHMRFPLMYEENSRENPFKRTNEIVEEQYTPQSLATLESVFQELGKLTGPSNQKRERVDEEQKLYTDDEDDVYKTNNIAYEDVVGGEDWSPIEEKIETQTQEEVRDSKENTEKNEQINEEMKRSGQLGLPDEENRRESKDQLSEDASKVITYLRRLVNAVGSGRSQSGPNGDRAARLLQKPLDSQSIYQLIEISRNLQIPPEDLIEMLKAGEKPNGLVEPEQDLELAVDLDDIPEADLDRPDMFQSKMLSKGGYPKAPGRGMVEALPDGLSVEDILNVLGMENVVNQKSPYFPNQYSQDKALMRLPYGPGKSRANQIPKVAWIPDVESRQAPYENLNDQELGEYLARMLVKYPELLNTNQLKRVPSPVSSEDDLQEEEQLEQAIKEHLGPGSSQEMERLAKVSKRIPVGSLKNEDTPNRQYLDEDMLLKVLEYLNQEQAEQGREHLAKRAMENM
For B6, the binding was “binds”.

B7: FXYD domain-containing ion transport regulator 2 (protein, UniProt Q04646 1-70)
chain: MAGEISDLSANSGGSAKGTENPFEYDYETVRKGGLIFAGLAFVVGLLIILSKRFRCGGGKKHRQVNEDEL
In the case of B7, the binding is reported as “binds”.
